These results are taken from PubChem BioAssay AID445 (National Center for Advancing Translational Sciences (NCATS), 2006).

SMILES strings stand for the structures. “And” between values parts separate entries of the source, which are not always exact repeats. Identical values can stand only once. This is one part of the list. Further columns of the screen follow, without active or inactive calls. Compounds called inactive in the main read-out are mostly missing here. Potencies come from curve fits of mixed quality, noted in brackets.

A short description of this assay: IkB Signaling. Conditions: ABC-DLBCL IkBa-CBG/CBR dual luciferase ratio (green luciferase fused to IkBa over red control in OCI-Ly3 lymphoma cells), 4 h. The gist of the method: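 Curves were fitted separately to fusion (green), unfused (red) and ratio luminescence, then classed by r2, magnitude and activity. Cells: OCI-Ly3, 4 h compound plus doxycycline at 37C; 10 uM MG-132 defined full response.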
The mark [1] stands for this setting: measured here: IkB-luc green channel.
Where [2] appears, read: measured here: control luc red channel.
Where [3] appears, read: measured here: control luc red channel unless noted.

On to `C=CC(=O)OCCOCCOCCOCCOC(=O)C=C`, for which the AC50 is 5.01 µM [rising, partial curve] and 12.6 µM [rising, partial curve] under setting [1]; 31.6 µM [falling, partial curve] under setting [2]. Turning to `O=C(c1ccc(F)cc1)C(CN1CCOCC1)c1ccccc1` (centres undefined), the AC50 by setting is: under setting [1], 3.98 µM [rising, single point]; under setting [2], 3.98 µM [falling, partial curve].

As to `Cc1ccc(-n2nc3c(=O)n(CCCC(=O)NCCc4ccccc4)nc(C)c3c2C)cc1`, the AC50 under setting [3] is 15.8 µM [falling, partial curve]. The same measure, in the same setting: the figure for `Cc1ccccc1-c1nc(CN2CCCC(C(=O)NCc3ccc(Cl)cc3)C2)c(C)o1` (centres undefined) is 25.1 µM [falling, partial curve]; for `CCc1ccc(S(=O)(=O)c2cn(CC(=O)Nc3ccc(F)c(Cl)c3)c3ccccc3c2=O)cc1` it is 5.01 µM [falling, partial curve]. Consider `COc1ccc(C2C(=O)N(C3CCCCC3)CC(=O)N2CCc2ccc(C)cc2)cc1OC` (centres undefined), for which the AC50 under setting [3] is 0.01 µM [falling, full curve, poor fit].

Turning to `Cc1ccc(CN2C(=O)C(O)(c3c(C)[nH]c4ccccc34)c3ccccc32)cc1` (centres undefined), the AC50 under setting [3] was 20 µM [falling, partial curve].

Regarding `CCCOC(=O)c1cccc(Nc2nc(CCC)cc(=O)[nH]2)c1`, the concentration at half-maximal activity (AC50) under setting [3] is 20 µM [falling, partial curve]. Turning to `CCOC(=O)Cn1c(=N)n(Cc2ccc(C(C)(C)C)cc2)c2ccccc21`, the AC50 under setting [3] was 39.8 µM [falling, single point]. The same measure, in the same setting: to `Cc1nc2cc(-c3ccccc3)nn2c(C)c1CCC(=O)N1CCN(c2ccc(F)cc2)CC1` belongs 3.16 µM [falling, partial curve]. As for `Cc1ccc(-n2nnnc2SCc2nnc(-c3ccccc3Br)o2)c(C)c1`, the AC50 under setting [3] is 12.6 µM [falling, partial curve]. On the same count and under the same terms, to `COc1ccc(OC)c(S(=O)(=O)n2nnc3ccccc32)c1` belongs 10 µM [falling, partial curve]; to `COc1ccccc1C1NC(=O)c2n[nH]c(-c3cccs3)c21` (centres undefined), 25.1 µM [falling, single point]. For `CC1CCN(C(=O)c2c(NC(=O)c3ccccc3Cl)sc3c2CCC(C(C)(C)C)C3)CC1` (centres undefined), the AC50 under setting [3] was 2 µM [falling, partial curve].

As to `Cc1cc(C)cc(-n2ccnc2SCC(=O)Nc2cccc3ccccc23)c1`, the AC50 under setting [3] is 39.8 µM [falling, partial curve]. Still for that read-out and setting: the figure for `O=C(c1cc2ccccc2oc1=O)N1CCN(Cc2ccc3c(c2)OCO3)CC1` is 10 µM [falling, partial curve].

Turning to `Cc1ccc(C(=O)C2CCN(CC(=O)Nc3ccc4c(c3)OCCO4)CC2)cc1`, under setting [3], the AC50 is 31.6 µM [falling, single point]. The same measure, in the same setting: to `Cc1cccc(-n2ccnc2SCC(=O)Nc2cccc3ccccc23)c1` belongs 0.00631 µM [falling, full curve, poor fit]. Take `O=C(c1cc2ccccc2o1)N1CCN(c2ccccc2Cl)CC1`: the AC50 under setting [3] was 25.1 µM [falling, partial curve]. Same read-out and setting: to `Cc1cc(C)cc(OCCSc2nc3ccc(NC(=O)c4ccc5c(c4)OCO5)cc3s2)c1` belongs 6.31 µM [falling, partial curve]; to `CCc1ccc2[nH]cc(S(=O)(=O)c3ccc(C(C)C)cc3)c(=O)c2c1`, 2.51 µM [falling, full curve]. Same read-out and setting: the figure for `Oc1ccccc1-c1nc(-c2cccs2)c(-c2cccs2)[nH]1` is 20 µM [falling, partial curve]; for `COc1ccc(NC(=O)CCc2c(C)nc3c(c2C)c(=O)n(C)c(=O)n3C)c(OC)c1` it is 3.16 µM [falling, single point]; for `CCc1ccc2oc(C(=O)NCC(c3ccc(OC)cc3)N3CCCCC3)c(C)c2c1` (centres undefined) it is 31.6 µM [falling, single point].

Consider `Cc1cc(NC(=O)C2CCN(S(=O)(=O)c3c(C)noc3C)CC2)ccc1Br`, for which, under setting [3], the AC50 was 3.98 µM [falling, partial curve, poor fit]. On the same count and under the same terms, the figure for `CC1=C(C(=O)Nc2cccnc2)C(c2ccc(F)cc2)n2nc(-c3cccc(C)c3)nc2N1` (centres undefined) is 12.6 µM [falling, partial curve]; for `O=C(Cn1c(=O)n(Cc2nc(-c3ccccc3)no2)c(=O)c2cc3c(cc21)OCO3)Nc1ccccc1` it is 5.01 µM [falling, partial curve]. Take `Cc1cccc(-c2cc3nc4c(c(N5CCCC(O)C5)n3n2)CCC4)c1` (centres undefined): the concentration at half-maximal activity (AC50) under setting [3] was 12.6 µM [falling, partial curve].

As to `CCC(C)n1c(=O)c2sccc2n2c(CCCC(=O)N3CCN(c4ccccc4)CC3)nnc12` (centres undefined), under setting [3], the AC50 was 15.8 µM [falling, single point]. Turning to `COc1cccc(Cc2nc3ccccc3nc2SCC(=O)Nc2cccc(C)c2)c1`, under setting [3], the AC50 is 3.16 µM [falling, full curve]. Still for that read-out and setting: to `COc1ccc(CNC(=O)c2sc3nc4n(c(=O)c3c2C)CCCC4)cc1` belongs 10 µM [falling, partial curve]. For `CC(C)c1ccc(NC(=O)CSC2=Nc3ccccc3C3=NC(CCC(=O)NC4CCCCC4)C(=O)N23)cc1` (centres undefined), the AC50 under setting [3] was 39.8 µM [falling, single point].

`Cn1cccc1CNC(=O)Nc1ccc(Cl)cc1`: under setting [3], the AC50 was 12.6 µM [falling, partial curve].

Turning to `COC(=O)c1cc(Nc2nc3ccccc3nc2NS(=O)(=O)c2ccc(C)cc2)ccc1Cl`, under setting [3], the AC50 was 0.316 µM [falling, full curve]. On the same count and under the same terms, to `Cc1ccc(CN(C(=O)c2ccc(C(C)(C)C)cc2)c2ccccn2)o1` belongs 25.1 µM [falling, single point]; to `CC(C)CC(=O)Nc1ccc2nc(SCC(=O)N3CCc4ccccc43)sc2c1`, 6.31 µM [falling, full curve]. Consider `CCOc1ccccc1CNC(=O)c1sc2ncccc2c1-n1cccc1`, for which, under setting [3], the AC50 is 15.8 µM [falling, partial curve]. Same read-out and setting: to `CCn1ccc2cc(S(=O)(=O)N3CCCN(C(=O)Nc4ccccc4F)CC3)ccc21` belongs 15.8 µM [falling, partial curve, poor fit]. Take `CCCc1cc(=O)[nH]c(SCC(=O)N2CCN(c3ccc(F)cc3)CC2)n1`: under setting [3], the AC50 was 20 µM [falling, single point].

For `O=C(CSc1nnc(-c2ccc3c(c2)OCO3)o1)Oc1ccccc1`, the AC50 under setting [3] is 39.8 µM [falling, single point]. Same read-out and setting: the figure for `COc1ccc2nc(NC(=O)Cc3ccc(OC)c(S(=O)(=O)N4CCOCC4)c3)sc2c1` is 12.6 µM [falling, partial curve]; for `CCOc1ccc(CC(=O)Nc2cccc(-c3nc4cccnc4s3)c2C)cc1` it is 39.8 µM [falling, single point]. The same measure, in the same setting: the figure for `Cc1ccc(-c2cn3cccnc3n2)cc1NC(=O)C(C)(C)Oc1ccc(Cl)cc1` is 39.8 µM [falling, single point]; for `COc1cccc(NCc2cccn2-c2nnc(N3CCC(C)CC3)s2)c1` it is 39.8 µM [falling, partial curve, poor fit]; for `CCC(C)NC(=O)CN1C(=O)c2cccnc2Sc2ccccc21` (centres undefined) it is 7.94 µM [falling, full curve]. The same measure, in the same setting: the figure for `Cc1noc(C)c1-c1ccc2ncnc(NC3CCNCC3)c2c1` is 5.01 µM [rising, partial curve] [measured here: IkB-luc green channel]; for `NS(=O)(=O)c1ccc(N=Nc2cc3ccccc3c(C(=O)O)c2O)cc1` it is 2.51 µM [falling, partial curve]; for `Cc1cccc(Nc2ncnc3onc(-c4ccc(Cl)cc4)c23)c1C` it is 0.316 µM [rising, single point]. Take `Cc1ccc(-c2nc3ccccc3[nH]2)s1`: the AC50 under setting [3] is 12.6 µM [falling, partial curve]. Same read-out and setting: the figure for `COC(=O)c1ccc([C@@H]2Nc3c(OC)ccc(C)c3[C@@H]3C=CC[C@@H]32)cc1` is 15.8 µM [falling, single point]; for `Cc1ccc(C(=O)OCC(=O)Nc2ccccc2)cc1NC(=O)c1ccco1` it is 3.98 µM [falling, partial curve]; for `COc1ccc(C(=O)Nc2cccc(C(=O)OCc3cc(=O)n4nc(C5CC5)sc4n3)c2)cc1` it is 3.98 µM [falling, partial curve]. Still for that read-out and setting: the figure for `Cc1nn(-c2ccccc2)c2[nH]c(C(F)(F)F)cc(=O)c12` is 25.1 µM [falling, partial curve]; for `COc1cccc2c(=O)cc(C)n(CC(=O)Nc3ccc(C)c(C)c3)c12` it is 10 µM [falling, partial curve]. For `Cc1ccc2cc(C)c(N3CCN(c4ccccn4)CC3)nc2c1`, the AC50 under setting [3] is 20 µM [falling, partial curve]. Same read-out and setting: to `O=C(NCc1csc(-c2ccccc2)n1)c1ccco1` belongs 15.8 µM [falling, partial curve].

For the compound `CCOC(=O)c1ccc(NC(=O)c2cnn3c(=O)c4c(n(CC)c23)CCN(Cc2ccc(OC)cc2)C4)cc1`, under setting [3], the AC50 was 20 µM [falling, partial curve].

In the case of `CC1CCN(S(=O)(=O)N2CCC(C(=O)NCc3ccccc3Cl)CC2)CC1`, the half-maximal activity concentration (AC50) under setting [3] was 10 µM [falling, partial curve]. The same measure, in the same setting: to `CC1=C(/C=C/C(C)=C/C=C/C(C)=C/CO)C(C)(C)CCC1` belongs 79.4 nM [rising, full curve, poor fit] [measured here: IkB-luc green channel]; to `COC(=O)c1ccc(Nc2ncnc3c2cnn3C)cc1`, 0.631 µM [rising, full curve]; to `COc1ccc(C2c3[nH]c4ccccc4c3CCN2C(=O)CCC2CCCC2)cc1` (centres undefined), 1.58 µM [falling, partial curve]. Regarding `Cc1ccsc1CCN1C(=O)N(c2ccccc2)C(=O)C1CC(=O)Nc1ccc(Cl)cc1` (centres undefined), the AC50 under setting [3] was 39.8 µM [falling, single point].

The term AC50 denotes the concentration giving half of the maximal activity seen.
